{
  "source": "PubChem BioAssay AID504467",
  "about": "(National Center for Advancing Translational Sciences (NCATS), 2011)",
  "note": "About 7,700 (2.3%) of roughly 330,000 compounds were called active. The shares of active, inactive and inconclusive entries below differ from those in the screen. Calls come from the whole dose curve; as a rule, active = well fitted inhibition curve with a large enough effect; inconclusive = small, poorly fitted or top-dose-only effect, or effect the other way; inactive = flat fitted curve, though single readings scatter. Potencies of inconclusive entries are doubtful fits and often do not repeat. % is set by controls: 0 for no effect and ±100 for the full control effect; potency is the fitted concentration of half-maximal effect.",
  "data": [
    {"assay": "qHTS screen for small molecules that inhibit ELG1-dependent DNA repair in human embryonic kidney (HEK293T) cells expressing luciferase-tagged ELG1; note: nearly all actives have a fitted effect of over 55% in size", "settings": "HEK293T ELG1-luciferase reporter, luminescence, 16 h, DNA damage induced by 5-fluorouridine; activity change, negative = inhibition: at 46.1 µM (top of the series)", "method_in_brief": "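In this reporter screen, reduction of luminescence relative to DMSO vehicle indicated activity. Compounds and 5-fluorouridine were added together to 2,000 cells per well, incubated for 16 hr at 37 °C, then developed with ONE-Glo.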", "values": [
      {"smiles": "N#C/C(=C\\c1c[nH]c2ccccc12)C(=O)NCC1CCCO1", "note": "(configuration not stated)", "Potency": "inconclusive: 29.1 µM [activator, single point]"},
      {"smiles": "CCc1ccc2[nH]c(=O)c(CN(CCN3CCOCC3)C(=O)Nc3ccccc3F)cc2c1", "Potency": "inconclusive: 29.1 µM [inhibitor, single point]"},
      {"smiles": "COc1ccc(NC(=O)Cc2cccs2)c(OC)c1", "Potency": "inconclusive: 7.94 µM [activator, partial curve, poor fit]"},
      {"smiles": "Cc1c(NC(=O)Nc2c(Cl)cccc2Cl)c(=O)n(-c2ccccc2)n1C", "Potency": "inactive"},
      {"smiles": "Cc1ccc(C(C)C)c(OCC(=O)Nc2sc3c(c2C#N)CC(C)(C)NC3(C)C)c1", "Potency": "inactive"},
      {"smiles": "Cc1cccc2nc(CSc3nc4ccc([N+](=O)[O-])cc4[nH]3)c(Br)n12", "Potency": "inconclusive: 29.1 µM [inhibitor, single point]"},
      {"smiles": "COc1ccccc1C1C(C#N)=C(N)Oc2c1oc(CO)cc2=O", "note": "(configuration not stated)", "Potency": "inactive"},
      {"smiles": "CC(=O)Nc1cccc(NC(=O)CSc2nccn2Cc2ccccc2)c1", "Potency": "inconclusive: 8.2 µM [inhibitor, partial curve]"},
      {"smiles": "CN(CC(=O)Nc1c(Cl)cccc1Cl)C(=O)CCC1CCCC1", "Potency": "inconclusive: 2.31 µM [inhibitor, partial curve, poor fit]"},
      {"smiles": "COc1cc(C2Nc3cc(Cl)c(S(N)(=O)=O)cc3S(=O)(=O)N2)ccc1OCc1ccccc1", "note": "(configuration not stated)", "Potency": "inconclusive: 23.1 µM [activator, partial curve]"},
      {"smiles": "Nc1nonc1C(=O)NCCNc1ccc([N+](=O)[O-])cn1", "Potency": "inactive"},
      {"smiles": "COc1ccccc1NC(=O)c1cc(Cl)ccc1NC(=O)c1ccco1", "Potency": "inconclusive: 18.4 µM [inhibitor, single point]"},
      {"smiles": "CCn1ccnc1CNC(=O)c1cc(COc2ccc(F)cc2F)on1", "Potency": "inactive"},
      {"smiles": "N#Cc1ccccc1NC(=O)COC(=O)c1c[nH]c2ccccc12", "Potency": "inactive"},
      {"smiles": "COC(=O)c1ccccc1NC(=O)Cn1cnc2cc(C)c(C)cc21", "Potency": "inconclusive: 16.4 µM [inhibitor, partial curve]"},
      {"smiles": "COc1ccccc1CNC(=O)Cc1ccccc1", "Potency": "inconclusive: 4.11 µM [activator, partial curve, poor fit]"},
      {"smiles": "CCOC(=O)c1nn(-c2ccccc2)cc1O", "Potency": "inconclusive: 20.6 µM [activator, single point]"},
      {"smiles": "COc1ccc(C(=O)Nn2c(SCC(=O)NCc3ccccc3)nc3ccccc3c2=O)cc1", "Potency": "inconclusive: 0.146 µM [activator, full curve, poor fit]"},
      {"smiles": "Cc1cccc(C(=O)n2c(=S)nc3cc(C)ccn32)c1", "Potency": "inconclusive: 0.73 µM [activator, full curve]"},
      {"smiles": "CCS(=O)(=O)N1CCc2nc(-c3ccccc3)sc2C1", "Potency": "inconclusive: 2.06 µM [activator, full curve]"},
      {"smiles": "O=c1c(NCCc2ccccc2)c(-c2ccccc2)c1=O", "Potency": "inconclusive: 4.61 µM [inhibitor, full curve]"},
      {"smiles": "COc1cc(NC(=O)Cc2ccccc2OC)cc(OC)c1", "Potency": "inconclusive: 6.51 µM [activator, single point]"},
      {"smiles": "COCCNC(=O)CSc1nnc(-c2ccc(C)cc2)c(-c2ccc(C)cc2)n1", "Potency": "inconclusive: 29.1 µM [inhibitor, single point]"},
      {"smiles": "Cc1ccc(/C=C/C(=O)N2CC(=O)Nc3ccccc32)o1", "Potency": "inactive"},
      {"smiles": "COc1ccc(C(=O)C2CCCN(C(=O)COc3ccc(C(C)=O)cc3)C2)cc1F", "note": "(configuration not stated)", "Potency": "active: 14.6 µM"},
      {"smiles": "Cc1ccc(CNC(=O)Cn2cnc(C(=O)Nc3ccc(C)c(C)c3)n2)o1", "Potency": "inconclusive: 16.4 µM [activator, partial curve]"},
      {"smiles": "C=CCNc1nc(C)c(C(C)=O)cc1C#N", "Potency": "inactive"},
      {"smiles": "COCCCn1c(SCc2nnc(-c3ccc(OC)c(OC)c3)o2)nnc1-c1ccncc1", "Potency": "inactive"},
      {"smiles": "Cc1ccc(S(=O)(=O)CCC(=O)Nc2ccc(S(=O)(=O)N(C)C)cc2)cc1", "activity change, negative = inhibition": "inconclusive: 8.14% [activator]"},
      {"smiles": "Cc1cc(Cl)ccc1OCCCC(=O)NN", "Potency": "inactive"},
      {"smiles": "O=C(CN1C(=O)c2ccc([N+](=O)[O-])cc2C1=O)Nc1ccccc1N1CCCC1", "Potency": "inactive"},
      {"smiles": "S=c1[nH]nc(-c2cccnc2)n1-c1ccc2c(c1)OCCO2", "Potency": "inconclusive: 29.1 µM [activator, single point]"},
      {"smiles": "COc1ccc(CNC(=O)c2coc(=O)c3ccccc23)c(OC)c1", "Potency": "inactive"},
      {"smiles": "O=C(Nc1ccc(S(=O)(=O)NC2=NCCCCC2)cc1)c1ccc(Cl)c([N+](=O)[O-])c1", "Potency": "inactive"},
      {"smiles": "CCCC(C)c1nnc(NC(=O)CCS(=O)(=O)c2ccccc2)s1", "note": "(configuration not stated)", "Potency": "inactive"},
      {"smiles": "CC(C)C(=O)N1CCC(n2nccc2NC(=O)CCOc2ccccc2)CC1", "Potency": "inconclusive: 14.6 µM [activator, partial curve]"},
      {"smiles": "C=CCN(c1ccccc1OC)S(=O)(=O)c1cccc(C(=O)NC2=NCCS2)c1", "Potency": "active: 23.1 µM"},
      {"smiles": "O=C(CSc1nnc(SCc2ccccc2)s1)N/N=C/c1c[nH]c2ccccc12", "Potency": "inconclusive: 2.91 µM [inhibitor, single point]"},
      {"smiles": "O=C(COc1ccccc1-c1ccccc1)NN=C1CCCC1", "Potency": "inconclusive: 1.46 µM [inhibitor, partial curve]"},
      {"smiles": "CC(=O)N(C)c1ccc(N=Cc2c(O)ccc3ccccc23)cc1", "Potency": "inconclusive: 32.6 µM [activator, partial curve, poor fit]"},
      {"smiles": "COc1ccc(C(=O)OCC(=O)Nc2c(C)cccc2C)c(OC)c1OC", "Potency": "inconclusive: 9.2 µM [inhibitor, partial curve, poor fit]"},
      {"smiles": "CN(C)C(CNC(=O)c1ccc2ccccc2n1)c1ccccc1", "note": "(configuration not stated)", "Potency": "inactive"},
      {"smiles": "S=c1[nH]nc(Cn2cnc3ccccc32)n1-c1ccccc1Cl", "Potency": "inactive"},
      {"smiles": "O=C(/C=C/c1cccc([N+](=O)[O-])c1)c1ccco1", "Potency": "inconclusive: 20.6 µM [activator, single point]"},
      {"smiles": "Cc1nn(CCCC(=O)Nc2c(F)cc(F)cc2Br)c(C)c1[N+](=O)[O-]", "Potency": "inconclusive: 29.1 µM [inhibitor, single point]"},
      {"smiles": "Cc1cccc(OCCn2c(CCCO)nc3ccccc32)c1", "Potency": "inactive"},
      {"smiles": "CCC(Sc1nc2ccsc2c(=O)n1-c1ccc(Cl)c(C)c1)C(=O)NCc1ccco1", "note": "(configuration not stated)", "Potency": "inconclusive: 29.1 µM [inhibitor, single point]"},
      {"smiles": "COc1cc(C2N(c3ccccn3)C(=O)C3CCCN32)cc(OC)c1OC", "note": "(configuration not stated)", "Potency": "inconclusive: 32.6 µM [activator, partial curve, poor fit]"},
      {"smiles": "CCCn1c(SCC(=O)Nc2cccc(C(=O)OCC)c2)nnc1-c1ccoc1C", "Potency": "inconclusive: 35.5 µM [inhibitor, single point]"},
      {"smiles": "CN(CC(=O)Nc1ccc(F)cc1)C(=O)c1cc([N+](=O)[O-])ccc1N1CCOCC1", "Potency": "inconclusive: 23.1 µM [activator, single point]"},
      {"smiles": "COc1ccc(C(=O)Nc2ccc(N3CCN(C)CC3)cc2)cc1", "Potency": "inconclusive: 16.4 µM [activator, partial curve]"},
      {"smiles": "COc1ccc(-c2nc3cnccn3c2NC2CCCCC2)cc1-c1cccc(Cl)c1", "Potency": "inconclusive: 32.6 µM [inhibitor, partial curve, poor fit]"},
      {"smiles": "Cc1cccc(Oc2ccc(NC(=O)C3CC=CCC3C(=O)O)cc2)c1", "note": "(configuration not stated)", "Potency": "inconclusive: 20.6 µM [inhibitor, single point]"},
      {"smiles": "COc1ccc(NC(=O)C2CCC(N3C(=O)C4C5C=CC(C5)C4C3=O)CC2)cc1", "note": "(configuration not stated)", "Potency": "inconclusive: 0.184 µM [activator, full curve, poor fit]"},
      {"smiles": "C=CCCC(=O)N1CCCC(C(=O)c2cccc(OC)c2)C1", "note": "(configuration not stated)", "Potency": "inactive"},
      {"smiles": "COc1ccc(-n2c(C)nnc2SCC(=O)Nc2ccccc2F)cc1", "Potency": "inactive"},
      {"smiles": "CN(Cc1ccccc1)C(=O)[C@@H]1CCCN1S(=O)(=O)c1ccc(Cl)cc1", "Potency": "inactive"},
      {"smiles": "Cc1cc(C)c(OCC(=O)NCC(c2ccco2)N2CCCCC2)c(C)c1", "note": "(configuration not stated)", "Potency": "inactive"},
      {"smiles": "COc1ccc(Cc2noc(CN3CCCC(C(=O)c4cccs4)C3)n2)cc1OC", "note": "(configuration not stated)", "Potency": "active: 18.3 µM"},
      {"smiles": "CCN(CC)C(=O)CSc1nc2c(sc(=S)n2Cc2ccco2)c(=O)n1-c1ccccc1", "Potency": "inconclusive: 23.1 µM [inhibitor, single point]"},
      {"smiles": "O=C(CNC(=O)C12CC3CC(CC(C3)C1)C2)Nc1ncccc1O", "Potency": "inactive"},
      {"smiles": "CCN(CC)C(=O)c1ccc2c3c(cccc13)C(=O)N(CCc1ccc(OC)c(OC)c1)C2=O", "Potency": "active: 4.61 µM"},
      {"smiles": "Cc1cc(C(=O)N/N=C/C(Cl)=C/c2ccccc2)c(C)o1", "Potency": "inactive"},
      {"smiles": "Cc1noc(C)c1COc1ccc(C(=O)OCC(N)=O)cc1", "Potency": "inconclusive: 18.3 µM [activator, partial curve]"},
      {"smiles": "CCOC(=O)c1oc2ccc(OC)cc2c1NC(=O)CN1CCN(C)CC1", "Potency": "inconclusive: 10.3 µM [inhibitor, partial curve]"},
      {"smiles": "CC(=O)OCCN(C)c1cc(SC(C)C)c2nonc2c1[N+](=O)[O-]", "Potency": "inactive"},
      {"smiles": "Cc1ccc(NC(=O)CN2C(=O)c3ccccc3C2=O)c(C)c1", "Potency": "inactive"},
      {"smiles": "Cc1ccc2nc(-c3ccc4c(c3)OCCO4)cn2c1", "Potency": "inconclusive: 0.0206 µM [activator, full curve, poor fit]"},
      {"smiles": "COc1ccc(-c2nnc(SCC(=O)N3CCOCC3)o2)cc1", "Potency": "inconclusive: 11.6 µM [activator, partial curve]"},
      {"smiles": "CCC(=O)/C=C1\\Sc2ccc(OC)cc2N1CC", "Potency": "inconclusive: 8.2 µM [inhibitor, partial curve, poor fit]"},
      {"smiles": "CCOC(=O)c1c(C)[nH]c(C)c1C(=O)COC(=O)/C=C/c1cccc(Cl)c1", "Potency": "inconclusive: 23.1 µM [inhibitor, single point]"},
      {"smiles": "CCCCC(O)(c1ccc(CC)cc1)C(CN1CCOCC1)c1ccccc1", "note": "(configuration not stated)", "Potency": "inconclusive: 20.6 µM [inhibitor, partial curve]"}
    ]}
  ]
}
